PubChem BioAssay AID504804, Drosophila RNAi Screening Center – 2011
In all, the deposit lists about 19,000 reagents; shown is a random part of those with a known target gene and a result. Over the whole deposit, 47 (0.25%) got an active call. 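Signals are raw, not normalised; exact z-scores behind calls not deposited; actives needed confirmation, so some wells reaching 2 SD are inactive.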

Screen: 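Knock-downs shielding fly cells from apoptosis caused by DNA damage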 (primary screen)
Cells: Drosophila Kc cells
Reagent: long dsRNA against Drosophila genes, 0.5 µg dsRNA per well
Duration: 96 h (48 h knock-down, then 48 h drug)
Challenge: doxorubicin 5 µg/ml for 48 h, added 48 h after dsRNA
Measured: 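Viability measured as cellular ATP by luminescence after 48 h knock-down then 48 h doxorubicin at 5 µg/ml; unnormalised plate counts for each replicate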
Direction: raw ATP luminescence: higher = more viable cells, protection from doxorubicin
Call rule: 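Active when both duplicate wells lie at least 2 SD above the plate mean and protection is confirmed by rescreening and independent dsRNAs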

With knock-down of Ripalpha (RPA-interacting protein alpha) [DRSC02657], the screen gave raw ATP luminescence, replicate 1 = 41193; raw ATP luminescence, replicate 2 = 54627; inactive. Knock-down of CG34033 [DRSC05190] came out at: raw ATP luminescence, replicate 1 = 77567; raw ATP luminescence, replicate 2 = 66017; inactive. After knock-down of Alg3 (ALG3, alpha-1,3- mannosyltransferase) [DRSC04700], the screen gave raw ATP luminescence, replicate 1 = 69657; raw ATP luminescence, replicate 2 = 51140; inactive. Depletion of Cpr31A (Cuticular protein 31A) [DRSC02779] came out at: raw ATP luminescence, replicate 1 = 29583; raw ATP luminescence, replicate 2 = 55130; inactive. Tbcc (Tubulin-binding cofactor C) [DRSC00223] showed raw ATP luminescence, replicate 1 = 3.05e5; raw ATP luminescence, replicate 2 = 2.70e5; inactive. For CG2150 [DRSC15420] the deposit lists raw ATP luminescence, replicate 1 = 64830; raw ATP luminescence, replicate 2 = 76970; inactive.

Silencing of kon (kon-tiki) [DRSC02033] resulted in: raw ATP luminescence, replicate 1 = 72803; raw ATP luminescence, replicate 2 = 60553; inactive. After knock-down of CG10508 [DRSC11612], the record shows raw ATP luminescence, replicate 1 = 19923; raw ATP luminescence, replicate 2 = 20457; inactive. CG10508 [DRSC11613] gave raw ATP luminescence, replicate 1 = 56980; raw ATP luminescence, replicate 2 = 50693; inactive. Depletion of CG12170 [DRSC12199] gave: SD above plate mean at least 2 SD above plate mean; raw ATP luminescence, replicate 1 = 97930; raw ATP luminescence, replicate 2 = 47003; active. With knock-down of ND-MNLL (NADH dehydrogenase (ubiquinone) MNLL subunit) [DRSC18159], the record shows raw ATP luminescence, replicate 1 = 26740; raw ATP luminescence, replicate 2 = 34500; inactive. With knock-down of CG7377 [DRSC10830], the record shows raw ATP luminescence, replicate 1 = 66307; raw ATP luminescence, replicate 2 = 62550; inactive.

Against TwdlM (TweedleM) [DRSC15810], the entry reads raw ATP luminescence, replicate 1 = 37510; raw ATP luminescence, replicate 2 = 47240; inactive. For Trm7-32 (tRNA methyltransferase 7-32) [DRSC15741], the entry reads raw ATP luminescence, replicate 1 = 38177; raw ATP luminescence, replicate 2 = 43637; inactive. For Dr (Drop) [DRSC17002], the entry reads raw ATP luminescence, replicate 1 = 1.80e5; raw ATP luminescence, replicate 2 = 1.58e5; inactive. Silencing of CG9525 [DRSC03249] gave: raw ATP luminescence, replicate 1 = 39887; raw ATP luminescence, replicate 2 = 69393; inactive. With knock-down of Elp2 (Elongator complex protein 2) [DRSC06095], the screen gave raw ATP luminescence, replicate 1 = 64877; raw ATP luminescence, replicate 2 = 1.07e5; inactive. After knock-down of Ance-5 [DRSC04055], the screen gave raw ATP luminescence, replicate 1 = 73293; raw ATP luminescence, replicate 2 = 72453; inactive.

For CG1288 [DRSC12538], the entry reads raw ATP luminescence, replicate 1 = 57230; raw ATP luminescence, replicate 2 = 60677; inactive. For CG6484 [DRSC06991], the entry reads raw ATP luminescence, replicate 1 = 56203; raw ATP luminescence, replicate 2 = 57317; inactive. Adss (Adenylosuccinate synthetase) [DRSC14162] scored raw ATP luminescence, replicate 1 = 40153; raw ATP luminescence, replicate 2 = 31110; inactive. After knock-down of RpL40 (Ribosomal protein L40) [DRSC00782] the results were raw ATP luminescence, replicate 1 = 23993; raw ATP luminescence, replicate 2 = 19463; inactive. With knock-down of CG5882 [DRSC15907], the screen gave raw ATP luminescence, replicate 1 = 56780; raw ATP luminescence, replicate 2 = 43290; inactive. Against CG5397 [DRSC00683], the values are raw ATP luminescence, replicate 1 = 1.04e5; raw ATP luminescence, replicate 2 = 61873; inactive.

After knock-down of TwdlS (TweedleS) [DRSC14737] the results were raw ATP luminescence, replicate 1 = 58690; raw ATP luminescence, replicate 2 = 10510; inactive. Silencing of CG17683 [DRSC21160] came out at: raw ATP luminescence, replicate 1 = 4.08e5; raw ATP luminescence, replicate 2 = 3.65e5; inactive. Knock-down of Oscillin [DRSC03001] resulted in: raw ATP luminescence, replicate 1 = 1.03e5; raw ATP luminescence, replicate 2 = 84337; inactive. After knock-down of Polr3B (RNA polymerase III subunit B) [DRSC07536], the record shows raw ATP luminescence, replicate 1 = 50647; raw ATP luminescence, replicate 2 = 44290; inactive.

Part of the list above, showing only “raw ATP luminescence, replicate 1”.
CG9525 [DRSC03249]: 39887
Elp2 (Elongator complex protein 2) [DRSC06095]: 64877
Ance-5 [DRSC04055]: 73293
